# Small-molecule microarray binding calls

Source: the ROBIN nucleic acid binder screens (doi:10.1002/anie.202211358).

Targets (5′ to 3′):
SAM-II: SAM-II riboswitch RNA pseudoknot, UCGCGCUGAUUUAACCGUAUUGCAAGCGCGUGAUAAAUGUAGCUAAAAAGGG. About 21,000 compounds screened, about 200 hits.
TPP: TPP riboswitch RNA three-way junction, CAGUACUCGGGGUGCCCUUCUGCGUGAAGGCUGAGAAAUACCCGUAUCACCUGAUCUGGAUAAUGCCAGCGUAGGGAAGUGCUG. About 24,000 compounds screened, about 160 hits.
PreQ1: PreQ1 riboswitch RNA pseudoknot, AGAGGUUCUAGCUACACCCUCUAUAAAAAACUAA. From B. subtilis. About 24,000 compounds screened, about 170 hits.

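Compounds were printed on reactive glass slides in duplicate spots, a dye-labelled oligonucleotide was laid over them, and the fluorescence left after washing was read. For the PreQ1, TPP and SAM-II riboswitches the laboratory earlier reported (doi:10.1038/s41467-019-09493-3) 1 µM RNA, 2 h, and a rule that included a mean Z-score above 3 (spot signal-to-noise against the whole library), a score well above that on a control array, and duplicate spots agreeing (coefficient of variation under 100). The data file gives only the calls; its cut-offs may differ, and compounds hitting several targets are kept. The calls come from the array alone, and fixing a compound to the slide can hide its binding.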 A compound is marked Y if it was called a hit and N if it was screened but was not. The compounds are a random part of those screened. A dash means that no call is listed here.

SMILES | SAM-II | TPP | PreQ1
CCOCCCNc1oc(-c2ccc(S(=O)(=O)N3CCCCC3)cc2)nc1C#N | - | N | N
Cc1cc(Cl)ccc1OCC(O)CN1CCCCC1C (stereo unspecified) | N | N | N
OCCn1cc(-c2ccc3c(c2)CCC3=NO)c(-c2ccncc2)n1 | N | N | N
C[C@@]1(O)CCN(C(=O)c2cccc(-n3cnnc3)c2)C[C@@H]1O | N | N | N
O=C(NCc1cc(-c2ccco2)on1)c1cccc(CC2CCNCC2)c1 | N | N | N
O=C(C1CCC(CNc2c(N3CCCCC3)c(=O)c2=O)CC1)N1CC=C(c2ccccc2)CC1 (stereo unspecified) | - | N | N
Cc1nc(CC(=O)N2CCC(Cc3ccc(CO)cc3)C2)cs1 (stereo unspecified) | N | N | N
OCCNc1ncnc2ccc(-c3cccc(N4CCNCC4)c3)cc12 | N | N | N
O=c1[nH]c(NCc2cccc(OC(F)F)c2)nc2c1CCNC2 | N | N | N
CCCC(=O)C1=C(NCCc2c(C)[nH]c3ccc(C)cc23)CCCC1=O | N | N | N
COc1ccc([C@H]2C[C@@H](C(F)(F)F)n3ncc(C(=O)Nc4ccc(C(C)O)cc4)c3N2)cc1OC (stereo partly specified) | N | N | N
COC(=O)c1nnn(CC(=O)Nc2c(C)cccc2C)c1N | N | N | N
CCCN(c1ncnc2sc3c(c12)CCNC3)[C@@H]1CCCC[C@H]1O | N | N | N
CCOc1cccc(NC2=NS(=O)(=O)c3ccccc32)c1 | - | N | N
CC(C)(O)C(=O)Nc1ccc([N+](=O)[O-])c(C(F)(F)F)c1 | N | N | N
C=CCNc1nc(N)c(C(C)=O)s1 | N | N | N
CCc1n(CC(O)COC2CCCCC2)c2ccccc2[n+]1C (stereo unspecified) | N | N | N
CCCCOC(=O)c1ccc(Nc2nc(C(=O)OCC)nc3ccccc23)cc1 | N | N | N
CC(C)(C)c1ccc(-c2nc(NCCCN3CCOCC3)c3ccccc3n2)cc1 | N | N | N
O=[N+]([O-])c1cccc(NCc2ccccc2)c1 | N | N | N
C=CCc1c(C)c(C#N)c2nc3ccccc3n2c1NC(C)C | - | N | N
CN(C)C(=O)N1CCN(C2Cc3ccccc3C2)CC(O)C1 (stereo unspecified) | N | N | N
Cc1cc(C(=O)N(C)Cc2nc(-c3ccccc3)no2)cc2sc(N)nc12 | N | N | N
Cc1ccc(-c2ccnc(N3CCC(NCc4n[nH]c(=O)[nH]4)CC3)n2)c(C)n1 | N | N | N
CC(C)c1noc(CN(C)C(C(=O)O)c2ccc(CO)cc2)n1 (stereo unspecified) | N | N | N
COC(=O)C1=C(N)OC(C)=C(C(=O)OC(C)(C)C)C12C(=O)N(C)c1ccccc12 (stereo unspecified) | N | N | N
O=C(CNc1cccc2ccccc12)NN=Cc1cn(Cc2ccccc2)c2ccccc12 | N | N | N
c1ccc(-c2noc(-c3cccnc3NC3CCCCC3)n2)cc1 | - | N | N
Nc1nonc1C(=O)NCCNCc1ccccc1OCc1ccc(F)cc1 | - | N | N
CCc1c(C)nc2ncnn2c1Nc1cccc(OC)c1 | N | N | N
Cc1nc(-c2cc(-c3ccc(-n4ccnc4)cc3)nc(N)c2C#N)c[nH]1 | N | N | N
CC1(C)Cc2c(C#N)c(NCC3CCCO3)nc(-c3ccccc3)c2CO1 (stereo unspecified) | N | N | N
COc1cccc(NCc2nn(Cc3ccc(F)cc3)c(=O)[nH]2)c1 | N | N | N
Cc1ccc(-c2ccc(CN3CC[C@@H](NC(=O)c4cccnc4)[C@H](O)C3)o2)cc1 | N | N | N
COc1cc(-c2cc(-c3cc(C(C)(C)C)[nH]n3)c(C#N)c(N)n2)ccc1O | N | N | N
c1ccc2sc(-c3ccc(NCc4ccc5c(c4)OCO5)cc3)nc2c1 | N | N | N
CN1CCN(c2ccc(N3CC(=O)C(c4nc5ccccc5[nH]4)=C3N)cc2)CC1 | - | N | N
COc1cc2ncnc(Nc3cccc(Cl)c3)c2cc1OC | N | N | N
CCOC(=O)c1cnc2c(C)cccc2c1NCCc1ccccc1 | N | N | N
Nc1nc(COc2ccc(F)cc2)nc(N2CCCCC2)n1 | N | N | N
CCOc1cc(CNc2ncc(-c3ccccc3)n2C)ccc1O | N | N | N
Cc1nc(C(=O)N2CC[C@@H](c3ccc4ccccc4c3)[C@H](O)C2)c(C)o1 | N | N | N
CC(C)Cc1noc(C2CCCN(c3nc(CCN)nc4ccccc34)C2)n1 (stereo unspecified) | N | N | N
C=CCC(Nc1ccc(F)cc1)c1ccco1 (stereo unspecified) | N | N | N
Cc1noc(C)c1CN(C)CC1(O)CNCCOC1 (stereo unspecified) | N | N | N
O=S(=O)(Nc1nc2ccccc2nc1Nc1cccc(F)c1)c1ccccc1 | N | N | N
CCOC(=O)N1CCC(Nc2c(N3CCN(c4ccccn4)CC3)c(=O)c2=O)CC1 | - | N | N
COC(=O)c1oc2ccc(OC)cc2c1N | N | N | N
OC1(CNCc2cccc(OC(F)(F)F)c2)CCCNC1 (stereo unspecified) | N | N | N
C[C@@]12C[C@@]3(O)O[C@@H](O1)[C@]1(COC(=O)c4ccccc4)[C@@H]3C[C@@]12O[C@@H]1O[C@H](CO)[C@@H](O)[C@H](O)[C@@H]1O | N | N | N
C[C@H](N)c1nnc(SCc2ccc(Cl)c(Cl)c2)o1 | N | N | N
Cc1nnc(CCNC(=O)c2ccc3c(c2)[nH]c(=O)n3[C@H]2CC[C@H](O)CC2)[nH]1 | N | N | N
COc1cc2c(NCCCCCO)ncnc2c(OC)c1OC | N | N | N
COc1ccc(-c2nn3c(NCCCN(C)C)cc(C)nc3c2C)cc1OC | - | N | N
CC1(C)CC(C(CCN)c2ccc(F)cc2)CCO1 (stereo unspecified) | N | N | N
COc1ccc(-c2noc(Nc3ccc(C)c(C)c3)n2)cc1OC | - | N | N
Cc1ccc(C2(CCNCCCN3CCOCC3)CCOC(C)(C)C2)cc1 (stereo unspecified) | - | N | N
Nc1ccc2c(c1)nc1n2CCN(CCO)C1 | N | N | N
Cn1c(-c2ccc(F)cc2)cnc1NCc1cccc(Br)c1 | N | N | N
COc1ccc(-c2noc(-c3cccnc3NCc3ccccn3)n2)cc1 | - | N | N

For reference, 8 entries once more:

SMILES	SAM-II	TPP	PreQ1
CC(C)(O)C(=O)Nc1ccc([N+](=O)[O-])c(C(F)(F)F)c1	N	N	N
COc1cc2ncnc(Nc3cccc(Cl)c3)c2cc1OC	N	N	N
CCOC(=O)N1CCC(Nc2c(N3CCN(c4ccccn4)CC3)c(=O)c2=O)CC1	-	N	N
Cc1nnc(CCNC(=O)c2ccc3c(c2)[nH]c(=O)n3[C@H]2CC[C@H](O)CC2)[nH]1	N	N	N
OCCNc1ncnc2ccc(-c3cccc(N4CCNCC4)c3)cc12	N	N	N
Cc1nc(CC(=O)N2CCC(Cc3ccc(CO)cc3)C2)cs1 (stereo unspecified)	N	N	N
C=CCNc1nc(N)c(C(C)=O)s1	N	N	N
C[C@@]1(O)CCN(C(=O)c2cccc(-n3cnnc3)c2)C[C@@H]1O	N	N	N